Results from EP4692047A1, “COMPOUND, FLUORESCENT DYE, KIT, CELL DETECTION METHOD, AND DYEING MATERIAL” (National University Corporation Kochi University, priority 2023, dated 2024).
For at least one compound, name, drawing or mass did not settle the structure.

Assay: Water solubility test by change of absorption spectral shape in phosphate buffer
Assay type: physicochemical

Compound: CC(=O)c1ccc2ccc3c(N4CCCCC4)ccc4ccc1c2c43 [PK, 1-acetyl-6-piperidylpyrene]
- concentration at which the spectral shape (e.g., absorption maximum) changes significantly (aggregation): around 5 µM
